We go through 9 molecules from paper PMC4034400.

Sequences of proteins named here, by UniProt entry; tags and fusion partners are left off. A change or cut given only in a name is not applied to a line headed by its entry.
UniProt Q9VWQ1: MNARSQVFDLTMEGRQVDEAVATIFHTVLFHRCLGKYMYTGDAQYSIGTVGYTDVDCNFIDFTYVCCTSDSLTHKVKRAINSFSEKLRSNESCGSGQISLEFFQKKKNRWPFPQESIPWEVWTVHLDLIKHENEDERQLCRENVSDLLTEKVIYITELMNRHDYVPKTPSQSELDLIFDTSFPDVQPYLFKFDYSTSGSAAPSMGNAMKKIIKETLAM

Results are given in words; binding and its absence hold for the method and conditions named. Binding seen in cells or lysates may run through a third protein. For some assays here: A result given as binding can be weak or reduced; the word gives no strength. For some assays here: Where a sequence is shown, tags or fusion partners need not be part of it.

For assay [1], the target named is T1, full-length 3xHA-Atg13 (Drosophila) (UniProt Q9VHR6).
T1 sequence: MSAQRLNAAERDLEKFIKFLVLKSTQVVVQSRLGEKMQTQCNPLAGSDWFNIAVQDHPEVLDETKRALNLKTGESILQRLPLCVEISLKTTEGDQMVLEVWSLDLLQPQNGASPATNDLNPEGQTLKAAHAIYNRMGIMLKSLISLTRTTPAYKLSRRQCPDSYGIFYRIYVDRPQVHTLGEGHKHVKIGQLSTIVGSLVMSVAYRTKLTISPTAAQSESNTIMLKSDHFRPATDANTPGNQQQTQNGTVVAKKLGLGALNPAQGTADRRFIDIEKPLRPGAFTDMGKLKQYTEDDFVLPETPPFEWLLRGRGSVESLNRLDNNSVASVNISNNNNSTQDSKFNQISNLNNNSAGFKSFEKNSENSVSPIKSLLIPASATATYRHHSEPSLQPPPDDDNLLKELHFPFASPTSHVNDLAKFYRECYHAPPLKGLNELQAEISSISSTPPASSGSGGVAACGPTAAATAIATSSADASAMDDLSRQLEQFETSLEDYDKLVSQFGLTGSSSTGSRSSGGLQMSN
The experiment in a line: co-IP; transfected Drosophila D.Mel-2 cells; the HA-tagged protein precipitated (anti-HA beads), the myc- or FLAG-tagged partner detected; beads alone as control.

Assay [2] has as its target 3xFLAG-Atg101 (Drosophila) (UniProt Q9VWQ1). Nature of the assay: co-IP; transfected Drosophila D.Mel-2 cells; the FLAG-tagged Atg101 precipitated (anti-FLAG beads), the HA-tagged partner detected; beads alone as control.
Assay [3] concerns the target Atg101-3xFLAG (Drosophila) (UniProt Q9VWQ1). Described as above.
In a further assay the target is 3xHA-Atg101 (Drosophila) (UniProt Q9VWQ1). Nature of the assay: co-IP; transfected Drosophila D.Mel-2 cells; the HA-tagged protein precipitated (anti-HA beads), the myc- or FLAG-tagged partner detected; beads alone as control.
For assay [4], the target named is T2, 3xHA-GST-Atg1 fragment 461–570 (Drosophila) (UniProt Q9VU14).
T2 sequence: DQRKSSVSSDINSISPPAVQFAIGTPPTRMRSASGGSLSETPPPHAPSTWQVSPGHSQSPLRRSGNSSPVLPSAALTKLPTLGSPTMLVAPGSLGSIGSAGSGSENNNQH
Described as above.

Assay [5] concerns the target T3, 3xHA-GST-Atg1 fragment 364–459 (Drosophila) (UniProt Q9VU14).
T3 sequence: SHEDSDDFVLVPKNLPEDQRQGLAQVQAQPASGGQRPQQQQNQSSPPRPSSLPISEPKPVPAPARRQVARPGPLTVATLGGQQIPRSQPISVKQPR
The assay is described as above.

The target of assay [6] is T4, 3xHA-GST-Atg1 fragment 565–725 (Drosophila) (UniProt Q9VU14).
T4 sequence: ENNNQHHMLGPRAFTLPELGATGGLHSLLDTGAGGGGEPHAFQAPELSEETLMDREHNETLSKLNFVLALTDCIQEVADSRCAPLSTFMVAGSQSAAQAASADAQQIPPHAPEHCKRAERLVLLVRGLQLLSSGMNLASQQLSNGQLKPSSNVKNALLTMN
The assay is described as above.

Assay [7] has as its target T5, 3xHA-GST-Atg1 fragment 233–360 (Drosophila) (UniProt Q9VU14).
T5 sequence: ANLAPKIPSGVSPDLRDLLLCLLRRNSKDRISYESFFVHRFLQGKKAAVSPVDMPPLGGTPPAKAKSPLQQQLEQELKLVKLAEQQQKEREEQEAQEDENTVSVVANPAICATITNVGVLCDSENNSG
The assay is described as above.

In the case of “N-terminally truncated 3xFLAG-ref(2)P lacking the PB1 domain (Drosophila) (domain or fragment)”, the binding result in assay [1] was “binds”. 3xHA-Atg101 (from UniProt Q9VWQ1): the binding result in assay [2] and in assay [3] was “binds” throughout. As for “kinase dead myc-Atg1 (from UniProt Q9VU14) (enzyme)”, the binding entry with 3xHA-Atg101 (Drosophila) is given as “binds”. In the case of Atg101-3xFLAG (from UniProt Q9VWQ1), the binding result is “no binding” in assay [4]; “binds” with 3xHA-Atg101 (Drosophila); “no binding” in assay [5]; “binds” in assay [6]; “binds” in assay [7].

B1: full-length 3xHA-Atg13 (protein, UniProt Q9VHR6 1-523)
chain: MSAQRLNAAERDLEKFIKFLVLKSTQVVVQSRLGEKMQTQCNPLAGSDWFNIAVQDHPEVLDETKRALNLKTGESILQRLPLCVEISLKTTEGDQMVLEVWSLDLLQPQNGASPATNDLNPEGQTLKAAHAIYNRMGIMLKSLISLTRTTPAYKLSRRQCPDSYGIFYRIYVDRPQVHTLGEGHKHVKIGQLSTIVGSLVMSVAYRTKLTISPTAAQSESNTIMLKSDHFRPATDANTPGNQQQTQNGTVVAKKLGLGALNPAQGTADRRFIDIEKPLRPGAFTDMGKLKQYTEDDFVLPETPPFEWLLRGRGSVESLNRLDNNSVASVNISNNNNSTQDSKFNQISNLNNNSAGFKSFEKNSENSVSPIKSLLIPASATATYRHHSEPSLQPPPDDDNLLKELHFPFASPTSHVNDLAKFYRECYHAPPLKGLNELQAEISSISSTPPASSGSGGVAACGPTAAATAIATSSADASAMDDLSRQLEQFETSLEDYDKLVSQFGLTGSSSTGSRSSGGLQMSN
Consider B1, for which the binding entry in assay [3] was “binds”.

B2: HA-GFP-Atg13 fragment 393–523 (domain or fragment, UniProt Q9VHR6 393-523)
chain: PPPDDDNLLKELHFPFASPTSHVNDLAKFYRECYHAPPLKGLNELQAEISSISSTPPASSGSGGVAACGPTAAATAIATSSADASAMDDLSRQLEQFETSLEDYDKLVSQFGLTGSSSTGSRSSGGLQMSN
As to B2, the binding result in assay [3] is given as “no binding”.

B3: HA-GFP-Atg13 fragment 1–398 (domain or fragment, UniProt Q9VHR6 1-398)
chain: MSAQRLNAAERDLEKFIKFLVLKSTQVVVQSRLGEKMQTQCNPLAGSDWFNIAVQDHPEVLDETKRALNLKTGESILQRLPLCVEISLKTTEGDQMVLEVWSLDLLQPQNGASPATNDLNPEGQTLKAAHAIYNRMGIMLKSLISLTRTTPAYKLSRRQCPDSYGIFYRIYVDRPQVHTLGEGHKHVKIGQLSTIVGSLVMSVAYRTKLTISPTAAQSESNTIMLKSDHFRPATDANTPGNQQQTQNGTVVAKKLGLGALNPAQGTADRRFIDIEKPLRPGAFTDMGKLKQYTEDDFVLPETPPFEWLLRGRGSVESLNRLDNNSVASVNISNNNNSTQDSKFNQISNLNNNSAGFKSFEKNSENSVSPIKSLLIPASATATYRHHSEPSLQPPPDDD
For the molecule B3, the binding entry in assay [3] was “binds”.

B4: HA-GFP-Atg13 fragment 1–230 (domain or fragment, UniProt Q9VHR6 1-230)
chain: MSAQRLNAAERDLEKFIKFLVLKSTQVVVQSRLGEKMQTQCNPLAGSDWFNIAVQDHPEVLDETKRALNLKTGESILQRLPLCVEISLKTTEGDQMVLEVWSLDLLQPQNGASPATNDLNPEGQTLKAAHAIYNRMGIMLKSLISLTRTTPAYKLSRRQCPDSYGIFYRIYVDRPQVHTLGEGHKHVKIGQLSTIVGSLVMSVAYRTKLTISPTAAQSESNTIMLKSDHF
For B4, the binding entry in assay [3] is given as “binds”.

B5: HA-GFP-Atg13 fragment 231–398 (domain or fragment, UniProt Q9VHR6 231-398)
chain: RPATDANTPGNQQQTQNGTVVAKKLGLGALNPAQGTADRRFIDIEKPLRPGAFTDMGKLKQYTEDDFVLPETPPFEWLLRGRGSVESLNRLDNNSVASVNISNNNNSTQDSKFNQISNLNNNSAGFKSFEKNSENSVSPIKSLLIPASATATYRHHSEPSLQPPPDDD
Turning to B5, the binding entry in assay [3] is given as “no binding”.
